The results in this text go back to PMC5316984.

By UniProt entry, the sequences of proteins in these tests, tags left out. Where a name states a change or a piece, a line headed by the entry shows the natural chain unless it says otherwise.
UniProt Q15208: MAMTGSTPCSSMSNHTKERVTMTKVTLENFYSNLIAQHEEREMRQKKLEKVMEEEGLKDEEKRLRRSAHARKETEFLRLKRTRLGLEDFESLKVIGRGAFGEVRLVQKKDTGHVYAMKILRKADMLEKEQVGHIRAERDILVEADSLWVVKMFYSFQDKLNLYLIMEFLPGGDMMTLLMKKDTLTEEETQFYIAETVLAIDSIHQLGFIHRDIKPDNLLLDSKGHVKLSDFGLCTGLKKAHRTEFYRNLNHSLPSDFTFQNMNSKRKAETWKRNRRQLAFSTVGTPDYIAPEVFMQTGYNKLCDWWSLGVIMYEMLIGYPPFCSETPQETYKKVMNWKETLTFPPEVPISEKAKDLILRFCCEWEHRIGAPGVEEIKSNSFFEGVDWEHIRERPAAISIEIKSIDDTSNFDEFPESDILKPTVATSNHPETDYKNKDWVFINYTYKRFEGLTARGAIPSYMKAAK
UniProt O14508: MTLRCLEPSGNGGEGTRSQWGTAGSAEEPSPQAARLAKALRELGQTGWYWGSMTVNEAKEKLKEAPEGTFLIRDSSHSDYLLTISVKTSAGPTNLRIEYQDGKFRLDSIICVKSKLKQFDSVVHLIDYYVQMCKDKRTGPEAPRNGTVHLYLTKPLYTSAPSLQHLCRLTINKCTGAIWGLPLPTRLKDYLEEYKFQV

These are yes or no findings as the source states them, for the method shown. Binding seen in cells or lysates may run through a third protein. Some entries that bind do so weakly or less than the wild type.

For assay [1], the target named is Myc-tagged NDR1 (UniProt Q15208). Description: co-IP; FLAG-SOCS2-ΔSB and Myc-NDR1 co-expressed; lysate precipitated with anti-Myc (9E10) antibody, immunoblot; IP buffer 50 mM HEPES pH 7.2, 250 mM NaCl, 10% glycerol, 1% Nonidet P-40, 1.0 mM EDTA. (Immunoblotting shows a protein as a band on a membrane.)
For assay [2], the target named is FLAG-SOCS2-ΔSB (SOCS2 SOCS-box deletion mutant, amino acids 1-145) (human) (UniProt O14508). Description: co-IP; FLAG-SOCS2-ΔSB and Myc-NDR1 co-expressed; lysate precipitated with anti-FLAG M2 antibody, immunoblot; IP buffer 50 mM HEPES pH 7.2, 250 mM NaCl, 10% glycerol, 1% Nonidet P-40, 1.0 mM EDTA.
Assay [3] addresses SOCS2 (endogenous) (human (endogenous in HEK293T) by the legend; mouse (endogenous in MEFs) by the text) (UniProt O14508). The assay can be described thus: co-IP; endogenous proteins; lysate (2 mg) precipitated with anti-SOCS2 antibody or anti-IgG, immunoblot; IP buffer 50 mM HEPES pH 7.2, 250 mM NaCl, 10% glycerol, 1% Nonidet P-40, 1.0 mM EDTA.

Consider “FLAG-SOCS2-ΔSB (SOCS2 SOCS-box deletion mutant, amino acids 1-145) (from UniProt O14508 1-145) (domain or fragment)”, for which the binding result in assay [1] was “binds”.
As to “Myc-tagged NDR1 (from UniProt Q15208 1-465) (enzyme)”, the binding result in assay [2] was “binds”.
As to “NDR1 (endogenous) (from UniProt Q15208 1-465) (enzyme)”, the binding entry in assay [3] was “binds”.
